Measured data: PubChem BioAssay AID1259308 (NCATS, 2017)
Purpose: 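Knock-downs that increase output of a recombinant reporter protein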 (primary screen). Cells: human HEK293 embryonic kidney cells stably expressing firefly luciferase (HEK-CMV-Luc2-Hygro). Reagents: single siRNA against human genes, 0.8 pmol siRNA per well. Timing: 72 h. Detection: 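Reporter luminescence and viable-cell signal on separate replicate plates, given as percent of non-targeting control and median/MAD z-scores, plus per-cell luciferase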. Scale: total luciferase, z-score: higher = more reporter protein produced. Call rule: 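Active when the median/MAD z-score for overall luciferase is greater than 3; a gene was taken forward for validation with new siRNAs if at least two of its three siRNAs passed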. Calls: active = raised luciferase; inactive = no rise.
The deposit covers about 59,000 reagents; this is a part drawn at random. About 1,510 of all reagents (2.6%) count as active. 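Calls use total luciferase alone and ignore viability, so some active siRNAs may act by altering cell number.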 Entries without a mark were called inactive. Reagents against one gene are numbered here. Not all columns of the deposit are shown.

NDN (GeneID 4692) #1 | total luciferase, z-score: 0.621
NDN (GeneID 4692) #2 | total luciferase, z-score: -0.795
NDN (GeneID 4692) #3 | total luciferase, z-score: -0.787
BCO1 (GeneID 53630) #1 | total luciferase, z-score: -0.487
BCO1 (GeneID 53630) #2 | total luciferase, z-score: 0.653
BCO1 (GeneID 53630) #3 | total luciferase, z-score: 0.101
CCDC50 (GeneID 152137) #1 | total luciferase, z-score: 0.499
CCDC50 (GeneID 152137) #2 | total luciferase, z-score: -2.05
CCDC50 (GeneID 152137) #3 | total luciferase, z-score: 0.786
NEIL2 (GeneID 252969) #1 | total luciferase, z-score: 0.821
NEIL2 (GeneID 252969) #2 | total luciferase, z-score: -0.898
NEIL2 (GeneID 252969) #3 | total luciferase, z-score: 0.111
OR7E85BP (GeneID 650293) #1 | total luciferase, z-score: 0.957
OR7E85BP (GeneID 650293) #2 | total luciferase, z-score: 1.4
OR7E85BP (GeneID 650293) #3 | total luciferase, z-score: 0.627
TC2N (GeneID 123036) #1 | total luciferase, z-score: -1.06
TC2N (GeneID 123036) #2 | total luciferase, z-score: 0.422
TC2N (GeneID 123036) #3 | total luciferase, z-score: 0.547

In a second layout: entries from further up.
{"target": "OR7E85BP (GeneID 650293)", "reagent": 2, "total luciferase, z-score": 1.4}
{"target": "OR7E85BP (GeneID 650293)", "reagent": 3, "total luciferase, z-score": 0.627}
{"target": "TC2N (GeneID 123036)", "reagent": 1, "total luciferase, z-score": -1.06}
{"target": "TC2N (GeneID 123036)", "reagent": 2, "total luciferase, z-score": 0.422}

More results follow.
SPDEF (GeneID 25803) #1 | total luciferase, z-score: 1.34
SPDEF (GeneID 25803) #2 | total luciferase, z-score: -3.35
SPDEF (GeneID 25803) #3 | total luciferase, z-score: -0.468
GAP43 (GeneID 2596) #1 | total luciferase, z-score: -1.6
GAP43 (GeneID 2596) #2 | total luciferase, z-score: -0.175
GAP43 (GeneID 2596) #3 | total luciferase, z-score: 1.81
GLS2 (GeneID 27165) #1 | total luciferase, z-score: 0.131
GLS2 (GeneID 27165) #2 | total luciferase, z-score: 0.389
GLS2 (GeneID 27165) #3 | total luciferase, z-score: 1.41
ALOX5AP (GeneID 241) #1 | total luciferase, z-score: -0.112
ALOX5AP (GeneID 241) #2 | total luciferase, z-score: 0.174
ALOX5AP (GeneID 241) #3 | total luciferase, z-score: 2.99
SPAG6 (GeneID 9576) #1 | total luciferase, z-score: -0.328
SPAG6 (GeneID 9576) #2 | total luciferase, z-score: 1.19
SPAG6 (GeneID 9576) #3 | total luciferase, z-score: 3.13 (active)
